PubChem BioAssay AID743454 | Peter MacCallum Cancer Centre | 2014
Here is an unselected part of about 18,000 reagents tested. In the full data, 450 (2.5%) were called active. 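Single biological run; no consistent viability z cut-off exists, so the class columns, not z-scores, define the calls.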 Reagent sequences are not shown.

Screen: 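Search for knock-downs that restore vorinostat killing in resistant colon cancer cells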 (primary screen)
System: human HCT116-VR colon cancer cells, selected for vorinostat resistance
Reagents: siRNA pool against human genes, 40 nM siRNA pool
Timing: vorinostat for 24 h, read-out about 72 h after transfection
Treatment: vorinostat at 2.5 µM final
Measurement: 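Cell viability by CellTiter-Fluor and caspase 3/7 activity by luminescence, each scaled to mock wells per plate, duplicates averaged, then robust z-scored over all plates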
Reading the numbers: viability robust z-score: higher = more viable cells than screen typical; caspase robust z-score: higher = more caspase 3/7 activity than screen typical
Hit rule: 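Hits are knock-downs in viability class RV1/RV2 or caspase class CA1/CA2, excluding ones that killed cells in the no-drug cell-count arm; hits then retested with single siRNAs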

gene,viability hit class,caspase hit class,viability robust z-score,caspase robust z-score,Call
CPA5,no change,no change,0.6,0.36,inactive
DACH2,no change,no change,-0.48,-0.26,inactive
EXOSC8,no change,no change,-1.56,2.86,inactive
ZMAT5,no change,no change,0.04,-1.03,inactive
GEN1,no change,no change,-0.19,-0.64,inactive
CCKAR,no change,no change,0.7,1.38,inactive
PUS3,no change,no change,0.72,0.04,inactive
ZCWPW1,no change,no change,-1.34,-0.35,inactive
ACSF3,no change,no change,-1.09,0.24,inactive
LCK,no change,no change,-1.3,0.64,inactive
PHB2,no change,no change,-2.19,1.01,inactive
BBS9,no change,no change,0.08,-0.52,inactive
MTERF4,no change,no change,-2.06,4.3,inactive
KCNV2,no change,no change,-1.79,4.73,inactive
HMCN2,no change,no change,-0.72,-0.36,inactive

A portion from the list above, as a working copy:
gene,viability hit class,caspase hit class,viability robust z-score,caspase robust z-score,Call
ZCWPW1,no change,no change,-1.34,-0.35,inactive
ACSF3,no change,no change,-1.09,0.24,inactive

Further results:
gene,viability hit class,caspase hit class,viability robust z-score,caspase robust z-score,Call
SLC7A14,no change,no change,-0.08,1.36,inactive
ZNF397,no change,no change,1.29,0.9,inactive
TAMALIN,no change,no change,0.89,-0.06,inactive
TUB,no change,no change,-0.11,0.99,inactive
SBSN,no change,no change,-0.84,0.72,inactive
SCRT2,no change,CA2 (caspase activation),-1.41,5.84,active
RESF1,no change,no change,1.42,-0.4,inactive
OR5AC2,no change,no change,0.45,-0.99,inactive
